Test: Organic thin film transistor (OTFT) device characterization
Conditions: gold top electrodes; for Mobility: hole mobility; for Mobility / On/Off ratio: semiconductor/polystyrene blend knife coated from n-butylbenzene on HMDS-treated Si wafer, Vg +10 to −40 V, Vds −40 V, ambient; for Hole mobility μ: semiconductor/polystyrene blend knife coated from n-butylbenzene on HMDS-treated substrate, saturation mobility from Id^1/2−Vg fit

SMILES	Mobility [cm^2/V • s]	Hole mobility μ	other results
CC(C)[Si](C#Cc1c2ccc(-c3cccs3)cc2c(C#C[Si](C(C)C)(C(C)C)C(C)C)c2ccc(-c3cccs3)cc12)(C(C)C)C(C)C [Example 1, 2,6-Bis(thiophene-2-yl)-9,10-bis-[(triisopropylsilyl)ethynyl]anthracene]	0.22	0.22 cm^2/Vs	On/Off ratio (listed as BT-TIPS-An): 2×10^5
Cc1ccc(-c2ccc3c(C#C[Si](C(C)C)(C(C)C)C(C)C)c4cc(-c5ccc(C)s5)ccc4c(C#C[Si](C(C)C)(C(C)C)C(C)C)c3c2)s1 [Example 2, 2,6-Bis(5-methyl-thiophene-2-yl)-9,10-bis-[(triisopropylsilyl)ethynyl]anthracene]	0.12	0.12 cm^2/Vs	On/Off ratio (listed as B5MT-TIPS-An): 1×10^4
CCc1ccc(-c2ccc3c(C#C[Si](C(C)C)(C(C)C)C(C)C)c4cc(-c5ccc(CC)s5)ccc4c(C#C[Si](C(C)C)(C(C)C)C(C)C)c3c2)s1 [Example 4, 2,6-Bis(5-ethyl-thiophene-2-yl)-9,10-bis-[(triisopropylsilyl)ethynyl]anthracene]	0.003	0.003 cm^2/Vs	On/Off ratio (listed as B5ET-TIPS-An): 2×10^3
CCCc1ccc(-c2ccc3c(C#C[Si](C(C)C)(C(C)C)C(C)C)c4cc(-c5ccc(CCC)s5)ccc4c(C#C[Si](C(C)C)(C(C)C)C(C)C)c3c2)s1 [Example 5, 2,6-Bis(5-propyl-thiophene-2-yl)-9,10-bis-[(triisopropylsilyl)ethynyl]anthracene]	0.0018	1.8×10^−3 cm^2/Vs	On/Off ratio (listed as B5PT-TIPS-An): 1×10^3
CCCCCCc1ccc(-c2ccc3c(C#C[Si](C(C)C)(C(C)C)C(C)C)c4cc(-c5ccc(CCCCCC)s5)ccc4c(C#C[Si](C(C)C)(C(C)C)C(C)C)c3c2)s1 [Example 6, 2,6-Bis(5-hexyl-thiophene-2-yl)-9,10-bis-[(triisopropylsilyl)ethynyl]anthracene]	0.013	0.013 cm^2/Vs	On/Off ratio (listed as B5HT-TIPS-An): 3×10^3
CC(C)[Si](C#Cc1c2ccc(-c3ccc(-c4cccs4)s3)cc2c(C#C[Si](C(C)C)(C(C)C)C(C)C)c2ccc(-c3ccc(-c4cccs4)s3)cc12)(C(C)C)C(C)C [Example 8, 2,6-Bis(2,2′-bithiophene-5-yl)-9,10-bis-[(triisopropylsilyl)ethynyl]anthracene]	0.07	0.07 cm^2/Vs	On/Off ratio (listed as B5TT-TIPS-An): 5×10^3
CC(C)[Si](C#Cc1c2ccc(-c3ccc(C=O)s3)cc2c(C#C[Si](C(C)C)(C(C)C)C(C)C)c2ccc(-c3ccc(C=O)s3)cc12)(C(C)C)C(C)C [Example 9, 2,6-Bis(5-formyl-thiophene-2-yl)-9,10-bis-[(triisopropylsilyl)ethynyl]anthracene]	0.01	0.01 cm^2/Vs	On/Off ratio (listed as B5FT-TIPS-An): 1×10^2
